PubChem BioAssay AID652243, Drosophila RNAi Screening Center | 2013

Assay: 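Knock-downs that decrease or increase androgen receptor reporter signal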 (primary screen)
Cells: Drosophila S2R+ cells
Reagents: long dsRNA against Drosophila genes
Timing: 72 h (48 h, then 24 h hormone)
Challenge: synthetic androgen R1881 at 10 nM for 24 h
Measurement: 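Per-well raw luminescence of the androgen-driven firefly reporter and of the Renilla control, two replicates each, without normalisation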
Scale: firefly reporter light: higher = more light from androgen-responsive reporter; Renilla control light: higher = more constitutive control signal (cell number, transfection)
Hit rule: 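Hit when the log firefly-to-Renilla ratio dropped or increased by a fixed fold versus the mean of GFP or LacZ controls across duplicate plates; lowering cut given as 1.5 and as 3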
Meaning of the calls: active = hit: reporter lowered or raised; inactive = no hit
In all, the deposit lists about 24,000 reagents; shown is an unselected part of those with a known target gene and a result. Over the whole deposit, 246 (1%) are marked active. 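Plates not normalised; calls are printed but the firefly/Renilla ratio behind them is not deposited; fold cut for lowering reported inconsistently.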 Raw values vary from plate to plate and are shown uncorrected. No sequences are given here. Not given: the amount of reagent.

no.	Target gene	DRSC id	firefly reporter light, replicate 1	firefly reporter light, replicate 2	Renilla control light, replicate 1	Renilla control light, replicate 2	activity call
1	mRpL30 (GeneID 31398)	DRSC18416	3.64e5	4.54e5	3.45e6	4.10e6	inactive
2	mRpL30 (GeneID 31398)	DRSC26623	3.55e5	4.23e5	6.43e5	6.08e5	inactive
3	CG8483 (GeneID 41623)	DRSC16430	54786	1.07e5	6.44e5	5.70e5	inactive
4	Ggt-1 (GeneID 32839)	DRSC19993	1.17e5	1.45e5	9.93e5	8.95e5	inactive
5	Ggt-1 (GeneID 32839)	DRSC27144	3.15e5	3.52e5	4.83e5	5.38e5	inactive
6	CG5276 (GeneID 41373)	DRSC15759	2.34e5	2.11e5	2.87e6	3.25e6	inactive
7	ave (GeneID 246638)	DRSC05502	1.25e5	1.79e5	3.24e5	3.88e5	inactive
8	ave (GeneID 246638)	DRSC28562	9.79e5	1.18e6	1.26e6	2.08e6	inactive
9	Tbce (GeneID 35532)	DRSC04897	8.87e5	7.06e5	2.07e6	1.69e6	inactive
10	CG7484 (GeneID 39969)	DRSC10853	3.22e5	2.53e5	3.00e6	2.85e6	inactive
11	Hsp60C (GeneID 33796)	DRSC03036	1.67e5	2.10e5	1.04e6	1.19e6	inactive
12	Hsp60C (GeneID 33796)	DRSC29438	5.02e5	6.14e5	9.55e5	9.55e5	inactive
13	Sac1 (GeneID 38137)	DRSC08622	8.32e5	1.06e6	1.15e6	1.24e6	inactive
14	Sac1 (GeneID 38137)	DRSC26886	3.45e5	2.28e5	5.92e5	4.55e5	inactive
15	Sac1 (GeneID 38137)	DRSC37062					inactive
16	Npc2e (GeneID 326136)	DRSC15522	1.02e5	1.27e5	1.92e6	1.91e6	inactive
17	Npc2e (GeneID 326136)	DRSC22338	7.27e5	9.45e5	2.57e5	2.46e5	inactive
18	CG30203 (GeneID 246514)	DRSC06690	2.37e5	1.61e5	1.33e6	1.23e6	inactive
19	TbCMF46 (GeneID 34318)	DRSC02221	1.33e5	96674	8.02e5	7.40e5	inactive
20	TbCMF46 (GeneID 34318)	DRSC36842					inactive
21	CalpC (GeneID 32597)	DRSC19873	5.43e5	4.59e5	3.42e6	2.51e6	inactive
22	CG16894 (GeneID 37280)	DRSC06634	5.45e5	3.86e5	3.37e6	2.86e6	inactive
23	CG16894 (GeneID 37280)	DRSC21785	6.81e5	5.51e5	1.51e6	1.77e6	inactive
24	CG33158 (GeneID 39834)	DRSC09708	4.75e5	6.01e5	2.79e6	4.63e6	inactive
25	CG33158 (GeneID 39834)	DRSC09709	2.73e5	3.09e5	2.59e6	2.05e6	inactive
26	CG33158 (GeneID 39834)	DRSC10438	2.40e5	1.91e5	1.95e6	1.49e6	inactive
27	dnc (GeneID 31309)	DRSC17759	2.21e5	2.22e5	2.60e6	2.81e6	inactive
28	dnc (GeneID 31309)	DRSC17911	98701	2.01e5	3.78e6	3.78e6	active
29	dnc (GeneID 31309)	DRSC18764	5.18e5	5.97e5	4.30e6	3.58e6	inactive

Active calls, of those listed so far:
Target gene	DRSC id	firefly reporter light, replicate 1	firefly reporter light, replicate 2	Renilla control light, replicate 1	Renilla control light, replicate 2	activity call
dnc (GeneID 31309)	DRSC17911	98701	2.01e5	3.78e6	3.78e6	active

The listing continues:
no.	Target gene	DRSC id	firefly reporter light, replicate 1	firefly reporter light, replicate 2	Renilla control light, replicate 1	Renilla control light, replicate 2	activity call
30	Obp28a (GeneID 34031)	DRSC03394	1.43e5	1.80e5	1.47e6	1.69e6	inactive
31	Obp28a (GeneID 34031)	DRSC25374	5.33e5	4.37e5	4.55e5	6.02e5	inactive
32	CG42820 (GeneID 34161)	DRSC02265	1.98e5	2.38e5	1.64e6	1.61e6	inactive
33	CG42820 (GeneID 34161)	DRSC28699	4.41e5	4.64e5	1.55e6	1.51e6	inactive
34	Droj2 (GeneID 41646)	DRSC16450	80211	46731	6.70e5	3.90e5	inactive
35	Droj2 (GeneID 41646)	DRSC28863	3.37e5	3.64e5	9.01e5	9.32e5	inactive
36	witty (GeneID 34145)	DRSC02378	3.38e5	2.19e5	3.38e6	2.48e6	inactive
37	witty (GeneID 34145)	DRSC21650	6.97e5	7.49e5	1.03e6	8.82e5	inactive
38	witty (GeneID 34145)	DRSC26154	3.39e5	4.51e5	5.81e5	6.63e5	inactive
39	HmgZ (GeneID 37480)	DRSC03888	1.30e5	1.52e5	4.88e5	7.02e5	inactive
40	HmgZ (GeneID 37480)	DRSC04620	4.12e5	6.59e5	1.07e6	2.53e6	inactive
41	CG8301 (GeneID 41160)	DRSC16405	1.33e5	2.41e5	2.71e6	3.07e6	inactive
42	CG8301 (GeneID 41160)	DRSC28170	5.27e5	4.88e5	1.99e6	1.74e6	inactive
43	Nelf-A (GeneID 42520)	DRSC15903	1.22e5	1.84e5	8.89e5	9.03e5	inactive
44	CG13398 (GeneID 34169)	DRSC02268	2.05e5	1.78e5	1.79e6	1.27e6	inactive
45	fs(1)K10 (GeneID 47781)	DRSC18775	72159	60645	5.66e5	4.11e5	inactive
46	fs(1)K10 (GeneID 47781)	DRSC25258	6.29e5	4.46e5	4.98e5	4.22e5	inactive
47	Fer2 (GeneID 41961)	DRSC15925	2.25e5	3.65e5	3.32e6	3.21e6	inactive
48	RpL14 (GeneID 38983)	DRSC11269	1.60e5	1.23e5	1.33e6	9.10e5	inactive
49	Liprin-gamma (GeneID 37552)	DRSC04093	4.43e5	4.15e5	3.43e6	4.36e6	inactive
50	CG18744 (GeneID 59140)	DRSC15381	82345	82947	1.96e6	1.93e6	inactive
51	CG30286 (GeneID 246529)	DRSC04070	1.83e5	2.92e5	1.28e6	1.53e6	inactive
52	CG12239 (GeneID 31509)	DRSC17832	85680	93095	8.07e5	6.92e5	inactive
53	CG12239 (GeneID 31509)	DRSC27969	6.01e5	5.13e5	2.09e6	1.20e6	inactive
54	CG32487 (GeneID 38358)	DRSC21745	5.07e5	5.16e5	1.71e6	2.26e6	inactive
55	CG32487 (GeneID 38358)	DRSC29078	5.06e5	4.76e5	1.59e6	1.51e6	inactive
56	Cog4 (GeneID 34442)	DRSC03057	1.38e6	1.31e6	2.65e6	2.87e6	inactive
57	SkpC (GeneID 32996)	DRSC20375	3.74e5	2.92e5	1.18e6	3.82e5	inactive
58	SkpC (GeneID 32996)	DRSC26926	6.87e5	5.02e5	1.03e6	4.84e5	inactive
